Data as given in PubChem BioAssay AID1259254 (NCATS, 2017)
The whole screen tested about 59,000 reagents; this is a part drawn at random. About 1,550 of them (2.6%) were called active. 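G2 share is only a proxy for re-replication; each gene was hit by three separate siRNAs, and active genes were retested.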 A number with no mark means an inactive call. The numbers tell different reagents against one gene apart. Further read-outs or replicates are left out here. Not given: the amount of reagent.

- Purpose: 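Genome-wide screen for genes that prevent DNA re-replication in cancer cells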 (primary screen)
- System: human HCT116 colorectal cancer cells
- Reagents: single siRNA against human genes
- Time to read-out: 3 days
- Detection: 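Nuclei stained with Hoechst and imaged; cell-cycle phase assigned by DNA content; G2 share scaled per plate, non-targeting siRNA 0%, GMNN siRNA 100%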
- Reading the numbers: G2 robust z-score and G2 cells, % of GMNN control: higher = more G2 cells, more excess DNA replication
- Active means: 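An siRNA counts as active if its G2 robust z-score lies at least 5 MADs above the screen median; here such calls match roughly 38% of GMNN control or more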

NUP35 (nucleoporin 35) #1
- G2 robust z-score: 1.85
- G2 cells, % of GMNN control: 16

NUP35 (nucleoporin 35) #2
- G2 robust z-score: 0.283
- G2 cells, % of GMNN control: 4.96

NUP35 (nucleoporin 35) #3
- G2 robust z-score: 0.949
- G2 cells, % of GMNN control: 9.65

ZNF830 (zinc finger protein 830) #1
- G2 robust z-score: -0.747
- G2 cells, % of GMNN control: -2.28

ZNF830 (zinc finger protein 830) #2
- G2 robust z-score: 0.68
- G2 cells, % of GMNN control: 7.75

ZNF830 (zinc finger protein 830) #3
- G2 robust z-score: 0.899
- G2 cells, % of GMNN control: 9.29

IL9R (interleukin 9 receptor) #1
- G2 robust z-score: 3.07
- G2 cells, % of GMNN control: 24.6

IL9R (interleukin 9 receptor) #2
- G2 robust z-score: 4.54
- G2 cells, % of GMNN control: 34.9

IL9R (interleukin 9 receptor) #3
- G2 robust z-score: 9.37 (active)
- G2 cells, % of GMNN control: 68.9

SIN3A (SIN3 transcription regulator family member A) #1
- G2 robust z-score: 5.93 (active)
- G2 cells, % of GMNN control: 44.7

SIN3A (SIN3 transcription regulator family member A) #2
- G2 robust z-score: 4.55
- G2 cells, % of GMNN control: 35

SIN3A (SIN3 transcription regulator family member A) #3
- G2 robust z-score: 2.82
- G2 cells, % of GMNN control: 22.8

BMPR1A (bone morphogenetic protein receptor type 1A) #1
- G2 robust z-score: 0.217
- G2 cells, % of GMNN control: 4.5

BMPR1A (bone morphogenetic protein receptor type 1A) #2
- G2 robust z-score: -0.518
- G2 cells, % of GMNN control: -0.68

BMPR1A (bone morphogenetic protein receptor type 1A) #3
- G2 robust z-score: 0.631
- G2 cells, % of GMNN control: 7.41

Records above marked active, once more:
IL9R (interleukin 9 receptor) #3
- G2 robust z-score: 9.37 (active)
- G2 cells, % of GMNN control: 68.9

SIN3A (SIN3 transcription regulator family member A) #1
- G2 robust z-score: 5.93 (active)
- G2 cells, % of GMNN control: 44.7

Next records follow:
CCDC38 (coiled-coil domain containing 38) #1
- G2 robust z-score: 1.84
- G2 cells, % of GMNN control: 15.9

CCDC38 (coiled-coil domain containing 38) #2
- G2 robust z-score: 0.057
- G2 cells, % of GMNN control: 3.37

CCDC38 (coiled-coil domain containing 38) #3
- G2 robust z-score: -0.114
- G2 cells, % of GMNN control: 2.17

MARCHF1 (membrane associated ring-CH-type finger 1) #1
- G2 robust z-score: -1.25
- G2 cells, % of GMNN control: -5.82

MARCHF1 (membrane associated ring-CH-type finger 1) #2
- G2 robust z-score: 1.23
- G2 cells, % of GMNN control: 11.6

MARCHF1 (membrane associated ring-CH-type finger 1) #3
- G2 robust z-score: -0.348
- G2 cells, % of GMNN control: 0.518

PLPPR2 (phospholipid phosphatase related 2) #1
- G2 robust z-score: -0.449
- G2 cells, % of GMNN control: -0.19

PLPPR2 (phospholipid phosphatase related 2) #2
- G2 robust z-score: 1.12
- G2 cells, % of GMNN control: 10.9

PLPPR2 (phospholipid phosphatase related 2) #3
- G2 robust z-score: 0.345
- G2 cells, % of GMNN control: 5.4
